We go through two substances from PMC3880038.

Amino acid sequences for entries named in this document (tags omitted).
UniProt P35241: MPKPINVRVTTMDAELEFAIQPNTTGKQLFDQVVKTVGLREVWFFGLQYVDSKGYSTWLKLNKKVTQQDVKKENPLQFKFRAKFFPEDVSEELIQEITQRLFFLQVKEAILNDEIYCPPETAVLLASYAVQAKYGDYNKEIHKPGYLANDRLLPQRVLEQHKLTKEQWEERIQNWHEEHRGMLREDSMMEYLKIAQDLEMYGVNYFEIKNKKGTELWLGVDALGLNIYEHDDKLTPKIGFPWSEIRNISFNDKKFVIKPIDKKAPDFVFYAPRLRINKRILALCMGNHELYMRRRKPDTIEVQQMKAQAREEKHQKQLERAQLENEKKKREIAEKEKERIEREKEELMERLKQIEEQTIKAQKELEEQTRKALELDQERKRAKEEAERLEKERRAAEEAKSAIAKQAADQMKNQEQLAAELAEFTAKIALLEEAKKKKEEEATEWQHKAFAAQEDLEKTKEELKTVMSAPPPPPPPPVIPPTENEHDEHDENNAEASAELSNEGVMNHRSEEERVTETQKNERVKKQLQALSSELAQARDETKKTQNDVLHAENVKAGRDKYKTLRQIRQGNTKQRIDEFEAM
UniProt P26038: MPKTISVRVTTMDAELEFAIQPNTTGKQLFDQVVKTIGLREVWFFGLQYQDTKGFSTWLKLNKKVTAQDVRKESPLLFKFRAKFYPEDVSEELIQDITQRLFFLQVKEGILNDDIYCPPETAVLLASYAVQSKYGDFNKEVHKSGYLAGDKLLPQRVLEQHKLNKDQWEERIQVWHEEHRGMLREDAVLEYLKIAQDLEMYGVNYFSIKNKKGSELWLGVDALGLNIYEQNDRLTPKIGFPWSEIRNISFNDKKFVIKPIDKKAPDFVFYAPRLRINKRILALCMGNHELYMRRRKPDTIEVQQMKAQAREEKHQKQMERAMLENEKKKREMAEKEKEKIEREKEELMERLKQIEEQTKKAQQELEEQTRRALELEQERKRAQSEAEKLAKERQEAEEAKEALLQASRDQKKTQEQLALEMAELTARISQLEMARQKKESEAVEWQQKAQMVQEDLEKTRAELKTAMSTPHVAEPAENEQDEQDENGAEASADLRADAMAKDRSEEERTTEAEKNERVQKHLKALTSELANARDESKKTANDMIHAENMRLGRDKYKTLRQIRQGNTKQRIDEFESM
UniProt P15311: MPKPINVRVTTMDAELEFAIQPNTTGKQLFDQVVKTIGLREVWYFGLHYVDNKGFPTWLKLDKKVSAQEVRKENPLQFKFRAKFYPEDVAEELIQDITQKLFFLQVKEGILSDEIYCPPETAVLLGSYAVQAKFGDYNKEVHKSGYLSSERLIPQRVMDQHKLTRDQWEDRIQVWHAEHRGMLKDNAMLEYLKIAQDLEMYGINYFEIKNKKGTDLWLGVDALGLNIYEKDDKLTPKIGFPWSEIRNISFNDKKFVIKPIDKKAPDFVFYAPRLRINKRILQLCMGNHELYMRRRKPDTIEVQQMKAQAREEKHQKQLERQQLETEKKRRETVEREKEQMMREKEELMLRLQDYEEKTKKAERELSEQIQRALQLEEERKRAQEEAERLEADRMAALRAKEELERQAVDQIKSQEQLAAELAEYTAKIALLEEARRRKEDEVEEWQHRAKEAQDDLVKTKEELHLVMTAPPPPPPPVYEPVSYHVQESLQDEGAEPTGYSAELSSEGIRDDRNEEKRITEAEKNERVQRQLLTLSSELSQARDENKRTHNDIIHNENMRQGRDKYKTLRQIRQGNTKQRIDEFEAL
UniProt Q28021: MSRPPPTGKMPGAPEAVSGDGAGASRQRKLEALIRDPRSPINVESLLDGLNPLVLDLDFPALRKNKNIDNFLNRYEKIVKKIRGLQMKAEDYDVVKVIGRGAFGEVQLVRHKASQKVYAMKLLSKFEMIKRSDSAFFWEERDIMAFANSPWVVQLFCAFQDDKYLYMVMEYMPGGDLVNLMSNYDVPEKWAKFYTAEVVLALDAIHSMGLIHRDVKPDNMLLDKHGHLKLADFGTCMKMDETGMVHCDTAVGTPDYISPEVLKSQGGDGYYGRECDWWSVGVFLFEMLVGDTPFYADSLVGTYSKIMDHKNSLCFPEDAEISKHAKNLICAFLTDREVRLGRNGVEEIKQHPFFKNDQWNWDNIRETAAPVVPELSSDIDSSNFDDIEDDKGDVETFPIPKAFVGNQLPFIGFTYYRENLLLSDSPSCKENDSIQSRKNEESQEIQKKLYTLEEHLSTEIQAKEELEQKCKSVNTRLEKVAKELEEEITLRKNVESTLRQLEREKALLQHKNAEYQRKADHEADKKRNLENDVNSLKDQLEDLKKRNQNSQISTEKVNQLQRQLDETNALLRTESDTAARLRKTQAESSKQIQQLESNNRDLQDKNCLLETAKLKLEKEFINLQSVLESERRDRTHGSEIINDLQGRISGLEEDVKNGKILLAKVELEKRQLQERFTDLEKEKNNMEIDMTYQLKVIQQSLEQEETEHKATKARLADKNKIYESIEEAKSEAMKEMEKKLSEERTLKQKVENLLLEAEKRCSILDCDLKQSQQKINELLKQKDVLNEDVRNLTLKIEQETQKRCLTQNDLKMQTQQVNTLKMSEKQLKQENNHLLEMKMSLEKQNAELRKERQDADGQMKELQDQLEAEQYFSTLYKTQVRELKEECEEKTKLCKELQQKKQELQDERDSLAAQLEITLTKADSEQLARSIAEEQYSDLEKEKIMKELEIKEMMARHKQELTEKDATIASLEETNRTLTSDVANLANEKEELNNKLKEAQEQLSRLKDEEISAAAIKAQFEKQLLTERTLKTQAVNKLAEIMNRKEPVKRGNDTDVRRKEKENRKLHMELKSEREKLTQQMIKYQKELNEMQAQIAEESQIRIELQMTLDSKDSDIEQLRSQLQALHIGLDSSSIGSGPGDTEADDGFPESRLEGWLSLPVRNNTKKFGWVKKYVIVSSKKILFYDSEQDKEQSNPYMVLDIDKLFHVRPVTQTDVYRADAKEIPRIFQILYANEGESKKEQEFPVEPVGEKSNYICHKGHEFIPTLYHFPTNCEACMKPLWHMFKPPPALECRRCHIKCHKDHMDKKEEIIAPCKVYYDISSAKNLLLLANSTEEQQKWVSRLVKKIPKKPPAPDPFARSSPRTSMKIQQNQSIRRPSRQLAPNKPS
UniProt Q2YDP5: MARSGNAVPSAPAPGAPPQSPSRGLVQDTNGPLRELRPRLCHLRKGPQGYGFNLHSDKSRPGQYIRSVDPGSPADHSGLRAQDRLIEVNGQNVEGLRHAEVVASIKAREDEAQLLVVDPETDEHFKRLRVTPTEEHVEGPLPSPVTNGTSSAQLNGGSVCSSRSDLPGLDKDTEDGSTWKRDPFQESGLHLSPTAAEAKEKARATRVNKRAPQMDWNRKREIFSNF

Results are given in words; binding and its absence hold for the method and conditions named. Binding seen in cells or lysates may run through a third protein. Some binding calls cover weakened binding; strength is not graded here.

The target in assay [1] is c-myc-tagged radixin (pCMV-myc radixin) (UniProt P35241). In words: co-IP; anti-c-myc immunoprecipitation from lysates of BPAEC transfected with pCMV-myc ezrin, radixin or moesin (IP buffer with 150 mM NaCl, 1% Nonidet P-40; protein G Sepharose, 4°C), Western blot for c-myc, EBP50 and NHERF2.
The target of assay [2] is c-myc-tagged moesin (pCMV-myc moesin) (UniProt P26038). Described as above.
The target in assay [3] is c-myc-tagged ezrin (pCMV-myc ezrin) (UniProt P15311). The description is as above.
The target of assay [4] is Rho kinase 2 (ROCK2), endogenous in BPAEC (bovine (endogenous in BPAEC)) (UniProt Q28021). In words: co-IP; endogenous EBP50, NHERF2 or ROCK2 immunoprecipitated from BPAEC lysates (20 mM Tris HCl pH 7.4, 150 mM NaCl, 2 mM EDTA, 2 mM sodium vanadate, 1% Nonidet P-40; protein G Sepharose, 4°C), Western blot; cells untreated, with nocodazole (80 ng/ml, 16 h), or transfected with non-silencing RNA.

The target of assay [5] is NHERF2 (Na+/H+ exchanger regulatory factor 2), endogenous in BPAEC (bovine (endogenous in BPAEC)) (UniProt Q2YDP5). Described as above.

On to “NHERF2 (Na+/H+ exchanger regulatory factor 2), endogenous in BPAEC (from UniProt Q2YDP5 1-226)”, for which the binding entry in assay [1], in assay [2], in assay [3] and in assay [4] was “binds” in each case.

As for “Rho kinase 2 (ROCK2), endogenous in BPAEC (from UniProt Q28021 1-1388) (enzyme)”, the binding entry in assay [5] is given as “binds”.
